In article PMC3988052 one finds binding result and Kd data, which are given here for 27 sequences.

The target in series [1] is T1, ATHB17Δ113 M227I (Arabidopsis thaliana) (UniProt Q8S9N6).
T1 sequence (looked up): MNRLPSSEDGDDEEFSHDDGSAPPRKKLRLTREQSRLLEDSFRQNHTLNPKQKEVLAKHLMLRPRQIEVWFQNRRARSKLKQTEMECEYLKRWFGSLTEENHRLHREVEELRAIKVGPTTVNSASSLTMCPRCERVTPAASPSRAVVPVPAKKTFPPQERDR
Kind of series: BLI. The settings on record: BLI (Octet QK): PBS (10 mM Na2HPO4, 1 mM KH2PO4, 137 mM NaCl, 2.7 mM KCl) pH 7.4, 0.005% Tween-20, 30 C, 30 nM protein; recombinant protein; residues 114-275; protein details: tag-free; label: biotin.

The target of series [2] is T1, ATHB17Δ113 M227I (Arabidopsis thaliana). Description: SPR. The settings on record: SPR (Biacore 2000): 10 mM HEPES pH 7.4, 150 mM NaCl, 3 mM EDTA, 0.005% Tween-20, 100 ug/ml BSA, 25 C, 3.7-300 nM protein; recombinant protein; residues 114-275; protein details: tag-free; label: biotin.

pKd: −log10 of the molar value. For at least one entry, the source does not settle the construct or the ends of the probe. No signal at the amounts used counts as a negative. Where a protein sequence is shown, tags need not be part of it.

Turning to “CAGACAAGCCTTGCGGC (double strand) [Substitution CAAGCCTTG]”, in series [1], the binding result is recorded as “no binding”.

In the case of “CAGTCAATCATTGTGGC (double strand) [Flank variant CAGT-CAATCATTG-TGGC]”, the pKd (as a rule, the negative decadic logarithm of the Kd, by convention in mol/L) in series [1] was 7.55.

For the sequence “CAGACTATCATAGCGGC (double strand) [Substitution CTATCATAG]”, in series [1], the binding result is on record as “no binding”.

On to “CACGCAATCATTGCGGC (double strand) [Flank variant CACG-CAATCATTG-CGGC]”, for which, in series [1], the negative-log Kd (pKd) is 7.65.

For the sequence “CAGACAATTAATTGCGGC (double strand) [Insertion CAATTAATTG]”, the binding result in series [1] was “no binding”.

As to “CAGACAATTACGACCGGC (double strand) [Insertion CAATTACGACCGGC]”, the binding result in series [1] is “no binding”.

For “CAGACAGTCACTGCGGC (double strand) [Substitution CAGTCACTG]”, the binding result in series [1] was “no binding”.

On to “CAGACAATGCCGACCGGC (double strand) [Insertion CAATGCCGACCGGC]”, for which, in series [1], the binding result was “no binding”.

As to “CAGACATTCAATGCGGC (double strand) [Substitution CATTCAATG]”, in series [1], the binding result is “no binding”.

As for “CAGACAACCGTTGCGGC (double strand) [Substitution CAACCGTTG]”, in series [1], the binding result is given as “no binding”.

As for “CAGACAATTATTGCGGC (double strand) [Class I]”, in series [1], the negative logarithm of the Kd (pKd) was 7.39.

Consider “CAGACAATATATTGCGGC (double strand) [Insertion CAATATATTG]”, for which the binding result in series [1] is “no binding”.

As for “CAGACGATCATCGCGGC (double strand) [Substitution CGATCATCG]”, the binding result in series [1] is “no binding”.

For “CAGACACTCAGTGCGGC (double strand) [Substitution CACTCAGTG]”, the binding result in series [1] is “no binding”.

With “CAGACAATGCATTGCGGC (double strand) [Insertion CAATGCATTG]”, the binding result in series [1] is recorded as “no binding”.

In the case of “CAGACAATGCGATTGCGGC (double strand) [Insertion CAATGCGATTG]”, the binding result in series [1] is “no binding”.

As to “CAGCTCAGTCTGACGGC (double strand) [Non-consensus]”, the binding result in series [2] and in series [1] was “no binding” each time.

As for “CAGAAAATCATTTCGGC (double strand) [Substitution AAATCATTT]”, the pKd in series [1] is 7.15.

On to “CAGACAATCGATTGCGGC (double strand) [Insertion CAATCGATTG]”, for which the binding result in series [1] is listed as “no binding”.

Regarding “CAGAGAATCATTCCGGC (double strand) [Substitution GAATCATTC]”, in series [1], the binding result is recorded as “no binding”.

In the case of “CACGCAATCATTGGCGC (double strand) [Flank variant CACG-CAATCATTG-GCGC]”, the pKd in series [1] is 7.40.

As to “CAGACAATCATTGAGGC (double strand) [Flank variant CAGA-CAATCATTG-AGGC]”, the pKd in series [1] was 7.56.

Turning to “CAGATAATTATTACGGC (double strand) [Substitution TAATTATTA]”, the pKd in series [1] was 7.04.

As for “CAGACAAACTTTGCGGC (double strand) [Substitution CAAACTTTG]”, in series [1], the binding result was “no binding”.

In the case of “CAGATAATCATTACGGC (double strand) [Substitution TAATCATTA]”, the pKd in series [1] is 6.97.

“CAGACCATCATGGCGGC (double strand) [Substitution CCATCATGG]”: the binding result in series [1] was “no binding”.

Take “CAGACAATCATTGCGGC (double strand) [Class II]”: in series [1], the pKd is 7.56.
